# From patent US20230080534A1, “SEMG2 ANTIBODY AND USE THEREOF” (SHANGHAI BIOTROY BIOTECHNIQUE CO., LTD., priority 2020, published 2023)
# Some of these results come from one statement about several compounds together.
# What was measured:
# [1] = biological target: T1, SEMG2 (Homo sapiens, UniProt Q02383); test: ELISA binding of affinity matured fully human antibodies to SEMG2; conditions: FIG. 21B-D
# T1 sequence (Q02383 24-582): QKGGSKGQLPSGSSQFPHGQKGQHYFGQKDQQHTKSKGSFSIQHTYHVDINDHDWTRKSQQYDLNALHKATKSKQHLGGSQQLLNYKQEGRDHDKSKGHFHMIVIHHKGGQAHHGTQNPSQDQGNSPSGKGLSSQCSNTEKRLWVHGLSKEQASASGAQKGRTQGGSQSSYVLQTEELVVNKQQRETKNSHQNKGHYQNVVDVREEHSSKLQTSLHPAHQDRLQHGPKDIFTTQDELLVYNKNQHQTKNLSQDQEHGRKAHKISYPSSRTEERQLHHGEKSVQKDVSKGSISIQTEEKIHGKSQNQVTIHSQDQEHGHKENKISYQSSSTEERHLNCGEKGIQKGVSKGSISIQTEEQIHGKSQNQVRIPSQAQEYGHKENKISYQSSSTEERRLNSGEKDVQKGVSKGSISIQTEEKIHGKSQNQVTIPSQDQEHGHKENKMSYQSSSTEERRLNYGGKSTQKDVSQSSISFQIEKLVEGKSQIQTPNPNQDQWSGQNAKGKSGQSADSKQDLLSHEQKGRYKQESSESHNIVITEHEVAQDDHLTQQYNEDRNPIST
# [2] = biological target: T2, BSA-S2 (497-509) (BSA-SP7) (Homo sapiens, UniProt Q02383); test: ELISA binding of affinity matured fully human antibodies to BSA-SEMG2(497-509); conditions: FIG. 21B-D
# T2 construct: for SEMG2 and BSA-S2 (497-509) (i.e., BSA-SP7); made in house; host or cells: chemical synthesis, coupled to BSA
substance,measurement,setting,value
"67-3-67-3: affinity matured fully human antibody from H88-67, VH SEQ ID NO:96, VL SEQ ID NO:59 [Antibody 67-3-67-3]",affinity for SEMG2 relative to that of the parent antibodies,[1],more than 10 fold
same,affinity for BSA-S2 (497-509) relative to that of the parent antibodies,[2],more than 10 fold
"67-3-67-4: affinity matured fully human antibody from H88-67, VH SEQ ID NO:96, VL SEQ ID NO:101 [Antibody 67-3-67-4]",affinity for SEMG2 relative to that of the parent antibodies,[1],more than 10 fold
same,affinity for BSA-S2 (497-509) relative to that of the parent antibodies,[2],more than 10 fold
"67-3-67-5: affinity matured fully human antibody from H88-67, VH SEQ ID NO:96, VL SEQ ID NO:102 [Antibody 67-3-67-5]",affinity for SEMG2 relative to that of the parent antibodies,[1],more than 10 fold
same,affinity for BSA-S2 (497-509) relative to that of the parent antibodies,[2],more than 10 fold
"67-3-67-6: affinity matured fully human antibody from H88-67, VH SEQ ID NO:96, VL SEQ ID NO:103 [Antibody 67-3-67-6]",affinity for SEMG2 relative to that of the parent antibodies,[1],more than 10 fold
same,affinity for BSA-S2 (497-509) relative to that of the parent antibodies,[2],more than 10 fold
"67-6-67-6: affinity matured fully human antibody from H88-67, VH SEQ ID NO:98, VL SEQ ID NO:103 [Antibody 67-6-67-6]",affinity for SEMG2 relative to that of the parent antibodies,[1],more than 10 fold
same,affinity for BSA-S2 (497-509) relative to that of the parent antibodies,[2],more than 10 fold
"67-9-67-3: affinity matured fully human antibody from H88-67, VH SEQ ID NO:97, VL SEQ ID NO:59 [Antibody 67-9-67-3]",affinity for SEMG2 relative to that of the parent antibodies,[1],more than 10 fold
same,affinity for BSA-S2 (497-509) relative to that of the parent antibodies,[2],more than 10 fold
